Experimental findings from publication PMC9232578 are described below.

No constants are given. Whether binding was seen depends on the method and setting. Binding seen in cells or lysates may run through a third protein. These calls come from enrichment with a bait or labelling near it, and not all partners need be listed. Where a sequence is shown, tags or fusion partners need not be part of it.

Experiment in all cases: affinity purification with mass spectrometry; FLAG IPs of COX11, COX19 and PET191 as for the immunoblots, eluted with 62.5 mM Tris-HCl pH 6.5, 2% SDS, acetone-precipitated, LC-MS/MS
One test concerns the target T1, COX11-FLAG (human) (UniProt Q9Y6N1).
T1 sequence: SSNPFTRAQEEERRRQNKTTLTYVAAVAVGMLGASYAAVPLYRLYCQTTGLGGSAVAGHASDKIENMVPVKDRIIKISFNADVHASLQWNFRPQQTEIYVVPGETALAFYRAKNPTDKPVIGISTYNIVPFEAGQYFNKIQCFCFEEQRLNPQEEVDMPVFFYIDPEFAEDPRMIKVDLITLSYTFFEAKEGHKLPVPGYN

The target of the next test is T2, PET191-FLAG (human) (UniProt Q86WW8).
T2 sequence: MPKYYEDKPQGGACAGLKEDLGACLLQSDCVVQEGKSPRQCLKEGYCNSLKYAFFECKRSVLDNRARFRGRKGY

The next test concerns the target T3, COX19-FLAG (human) (UniProt Q49B96).
T3 sequence: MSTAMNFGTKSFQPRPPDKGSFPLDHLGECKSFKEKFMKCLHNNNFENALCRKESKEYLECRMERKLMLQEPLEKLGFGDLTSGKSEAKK

B1: HCCS (enzyme, UniProt P53701 1-268)
chain: MGLSPSAPAVAVQASNASASPPSGCPMHEGKMKGCPVNTEPSGPTCEKKTYSVPAHQERAYEYVECPIRGTAAENKENLDPSNLMPPPNQTPAPDQPFALSTVREESSIPRADSEKKWVYPSEQMFWNAMLKKGWKWKDEDISQKDMYNIIRIHNQNNEQAWKEILKWEALHAAECPCGPSLIRFGGKAKEYSPRARIRSWMGYELPFDRHDWIINRCGTEVRYVIDYYDGGEVNKDYQFTILDVRPALDSLSAVWDRMKVAWWRWTS
For B1, the binding result with COX11-FLAG (human) and with PET191-FLAG (human) was “binds” each time.

B2: SCO1 (endogenous) (protein, UniProt O75880 68-301)
chain: STARPPPPWSQKGPGDSTRPSKPGPVSWKSLAITFAIGGALLAGMKHVKKEKAEKLEKERQRHIGKPLLGGPFSLTTHTGERKTDKDYLGQWLLIYFGFTHCPDVCPEELEKMIQVVDEIDSITTLPDLTPLFISIDPERDTKEAIANYVKEFSPKLVGLTGTREEVDQVARAYRVYYSPGPKDEDEDYIVDHTIIMYLIGPDGEFLDYFGQNKRKGEIAASIATHMRPYRKKS
For B2, the binding result with COX11-FLAG (human), with COX19-FLAG (human) and with PET191-FLAG (human) was “binds” throughout.

B3: SCO2 (endogenous) (protein, UniProt O43819 42-266)
chain: GPAETGGQGQPQGPGLRTRLLITGLFGAGLGGAWLALRAEKERLQQQKRTEALRQAAVGQGDFHLLDHRGRARCKADFRGQWVLMYFGFTHCPDICPDELEKLVQVVRQLEAEPGLPPVQPVFITVDPERDDVEAMARYVQDFHPRLLGLTGSTKQVAQASHSYRVYYNAGPKDEDQDYIVDHSIAIYLLNPDGLFTDYYGRSRSAEQISDSVRRHMAAFRSVLS
Regarding B3, the binding entry in the test with COX11-FLAG (human) is given as “binds”.

B4: COX15 (enzyme, UniProt Q7KZN9 1-410)
chain: MQRLLFPPLRALKGRQYLPLLAPRAAPRAQCDCIRRPLRPGQYSTISEVALQSGRGTVSLPSKAAERVVGRWLLVCSGTVAGAVILGGVTRLTESGLSMVDWHLIKEMKPPTSQEEWEAEFQRYQQFPEFKILNHDMTLTEFKFIWYMEYSHRMWGRLVGLVYILPAAYFWRKGWLSRGMKGRVLALCGLVCFQGLLGWYMVKSGLEEKSDSHDIPRVSQYRLAAHLGSALVLYCASLWTSLSLLLPPHKLPETHQLLQLRRFAHGTAGLVFLTALSGAFVAGLDAGLVYNSFPKMGESWIPEDLFTFSPILRNVFENPTMVQFDHRILGITSVTAITVLYFLSRRIPLPRRTKMAAVTLLALAYTQVGLGISTLLMYVPTPLAATHQSGSLALLTGALWLMNELRRVPK
As for B4, the binding entry with COX11-FLAG (human) and with PET191-FLAG (human) was “binds” in each case.

B5: COX19 (endogenous) (protein, UniProt Q49B96 1-90)
chain: MSTAMNFGTKSFQPRPPDKGSFPLDHLGECKSFKEKFMKCLHNNNFENALCRKESKEYLECRMERKLMLQEPLEKLGFGDLTSGKSEAKK
Turning to B5, the binding entry with COX11-FLAG (human) was “binds”.

B6: COA7 (protein, UniProt Q96BR5 1-231)
chain: MAGMVDFQDEEQVKSFLENMEVECNYHCYHEKDPDGCYRLVDYLEGIRKNFDEAAKVLKFNCEENQHSDSCYKLGAYYVTGKGGLTQDLKAAARCFLMACEKPGKKSIAACHNVGLLAHDGQVNEDGQPDLGKARDYYTRACDGGYTSSCFNLSAMFLQGAPGFPKDMDLACKYSMKACDLGHIWACANASRMYKLGDGVDKDEAKAEVLKNRAQQLHKEQQKGVQPLTFG
On to B6, for which the binding result in the test with COX11-FLAG (human) and with PET191-FLAG (human) was “binds” throughout.
